Here are results for 71 compounds from the supplement of paper PMC8616043.

Counter-ions that a name gives are not always drawn. The list shows a part of the results. Repeats in this data set agree poorly, so a single value says little.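 Human U-2 OS cells stably expressing a GFP sensor with a nuclear import signal and classical export signal were transfected to produce PR50, a 50-repeat proline–arginine dipeptide from ALS/FTD gene C9ORF72. Nuclear-minus-cytoplasm GFP was scaled from DMSO (low) to PR-only (high), scored against plate test wells; strongly negative scores marked PR-reversing hits.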

The test system of this test is U-2 OS NCT-C biosensor cells expressing PR50. Kind of test: Z-score of normalised NCT-C biosensor translocation index in PR50-expressing cells; higher = more nuclear biosensor (more disrupted nuclear export). The conditions noted are these: 3 µM; 24 h.
`Nc1ccc(S(N)(=O)=O)cc1` [Sulfanilamide]: the Z-score is inactive: -0.236.

Turning to `CCOc1nc2cccc(C(=O)OC(C)OC(=O)OC3CCCCC3)c2n1Cc1ccc(-c2ccccc2-c2nn[nH]n2)cc1` (stereo unspecified) [Candesartan cilexetil], the Z-score is inactive: 1.52.

Regarding `COc1ccc(-c2oc3c(CC=C(C)C)c(O)cc(O)c3c(=O)c2O)cc1` [Icaritin], the Z-score was inactive: 0.281.

Consider `N[C@@H](CCC(=O)N[C@@H](CSN=O)C(=O)NCC(=O)O)C(=O)O` [S-Nitroso glutathione], for which the Z-score is inactive: -0.173.

As for `CC(CCc1ccc(O)cc1)NCCc1ccc(O)c(O)c1` (stereo unspecified) [Dobutamine hydrochloride], the Z-score was inactive: -0.8.

For the compound `CC(CCc1ccc(O)cc1)NCCc1ccc(O)c(O)c1` (stereo unspecified) [Dobutamine·HCl], the Z-score was inactive: -0.0787.

Consider `CC1=C(C(=O)O)N2C(=O)[C@@H](NC(=O)[C@H](N)c3ccc(O)cc3)[C@H]2SC1` [Cefadroxil Monohydrate], for which the Z-score is inactive: -0.125.

For `CC(C)(Oc1ccc(C2CC2(Cl)Cl)cc1)C(=O)O` (stereo unspecified) [Ciprofibrate], the Z-score is inactive: 1.77.

`Cn1c(=O)c2c(ncn2CC(O)CO)n(C)c1=O` (stereo unspecified) [Dyphylline]: the Z-score is inactive: -0.486.

In the case of `NC(=O)c1cccnc1` [Nicotinamide], the Z-score is inactive: -0.383.

As to `COc1cccc(OC)c1-c1cc(C(=O)NC2(C(=O)O)C3CC4CC(C3)CC2C4)nn1-c1ccc(C(=O)N(C)CCCN(C)C)cc1C(C)C` (stereo unspecified), the Z-score is inactive: -0.0485.

For `NCc1c[nH]c(=S)n1[C@H]1CCc2c(F)cc(F)cc2C1` [Nepicastat hydrochloride], the Z-score is inactive: 0.648.

Take `CNC1(C)C2CCC(C2)C1(C)C` (stereo unspecified) [Mecamylamine hydrochloride]: the Z-score was inactive: 0.449.

Consider `Nc1cc(F)ccc1NC(=O)c1ccc(CNC(=O)/C=C/c2cccnc2)cc1` [Chidamide], for which the Z-score is inactive: -0.575.

Take `NS(=O)(=O)c1cc2c(cc1C(F)(F)F)NC(Cc1ccccc1)NS2(=O)=O` (stereo unspecified) [Bendroflumethiazide]: the Z-score is inactive: -0.0282.

On to `CC(CN1c2ccccc2Sc2ccccc21)N(C)C` (stereo unspecified) [Promethazine hydrochloride], for which the Z-score is inactive: -0.193.

Take `CC(CN1c2ccccc2Sc2ccccc21)N(C)C` (stereo unspecified) [Promethazine·HCl]: the Z-score is inactive: 1.92.

For `O=C(c1ccc(OCCN2CCCCC2)cc1)c1c(-c2ccc(O)cc2)sc2cc(O)ccc12` [Raloxifene hydrochloride], the Z-score is inactive: -0.805.

On to `O=C(c1ccc(OCCN2CCCCC2)cc1)c1c(-c2ccc(O)cc2)sc2cc(O)ccc12` [Raloxifene·HCl], for which the Z-score was inactive: 2.

As for `CN(C)c1nc(N)c(C(=O)NC(=N)N)nc1Cl` [5-(N,N-Dimethyl) amiloride hydrochloride], the Z-score is inactive: 0.173.

As for `Cc1cc(Cc2cc(C)cc(C(C)(C)C)c2O)c(O)c(C(C)(C)C)c1`, the Z-score was inactive: -0.771.

On to `CCn1cc(C(=O)O)c(=O)c2cc(F)c(N3CCNCC3)cc21` [Norfloxacin], for which the Z-score was inactive: 0.0911.

With `N[C@H](C(=O)O)[C@H](Cc1ccccc1)C(=O)O` [L-beta-threo-benzyl-aspartate], the Z-score was inactive: -0.961.

`Cc1nc2c(OCc3ccccc3)cccn2c1CC#N`: the Z-score was inactive: -0.586.

Regarding `CCOC(=O)C1=C(C)NC(C)=C(C(=O)OC)C1c1cccc([N+](=O)[O-])c1` (stereo unspecified) [Nitrendipine], the Z-score was inactive: 0.339.

For the compound `CCCOC(=O)c1c(-c2ccccc2)nc(CC)c(C(=O)SCC)c1CCC`, the Z-score is inactive: -0.101.

With `CC(C)c1nc(CN(C)C(=O)N[C@H](C(=O)N[C@@H](Cc2ccccc2)C[C@H](O)[C@H](Cc2ccccc2)NC(=O)OCc2cncs2)C(C)C)cs1` [Ritonavir], the Z-score was inactive: -0.441.

Turning to `COc1ccccc1OCCNCC(O)COc1cccc2[nH]c3ccccc3c12` (stereo unspecified) [Carvedilol], the Z-score is inactive: -0.686.

As to `CC(C)[C@H]1CC[C@H](C(=O)N[C@H](Cc2ccccc2)C(=O)O)CC1` [Nateglinide], the Z-score is inactive: 0.0838.

Regarding `COC(=O)/C(=C1/OC(=O)C(c2ccccc2)=C1O)c1ccccc1` [Vulpinic acid], the Z-score was inactive: -0.935.

Turning to `COc1c(O)cc2c(c1O)[C@@H]1O[C@H](CO)[C@@H](O)[C@H](O)[C@H]1OC2=O` [Bergenin], the Z-score was inactive: -0.544.

Consider `Nc1ncnc2c1ncn2[C@@H]1O[C@H](C[C@@H](N)CC[C@H](N)C(=O)O)[C@@H](O)[C@H]1O` [Sinefungin], for which the Z-score was inactive: -1.86.

Take `CCN1CCCC1CNC(=O)c1cc(S(=O)(=O)CC)c(N)cc1OC` (stereo unspecified) [Amisulpride]: the Z-score is inactive: -0.361.

For `S=P(N1CC1)(N1CC1)N1CC1` [Thiotepa], the Z-score is inactive: -0.0511.

Consider `O=C1CCc2c(ccc3ccccc23)O1` [Splitomicin], for which the Z-score is inactive: -0.669.

Turning to `Cn1c(=O)c2c(ncn2C)n(C)c1=O` [Caffeine], the Z-score was inactive: 1.32.

As for `Cc1c(OCC(F)(F)F)ccnc1C[S+]([O-])c1nc2ccccc2[nH]1` (stereo unspecified) [Lansoprazole], the Z-score is inactive: 0.403.

As to `Cc1cc(CN)cc(C)c1NC(=O)c1ccc(-c2cc(Cl)ccc2Cl)o1`, the Z-score was inactive: 2.06.

In the case of `CCCCCCCC/C=C\CCCCCCCC(=O)O` [Oleic Acid], the Z-score was inactive: 0.0481.

`O=C(O[C@@H]1C[C@@H]2C[C@H]3C[C@H](C1)N2CC3=O)c1c[nH]c2ccccc12` [Dolasetron mesylate hydrate]: the Z-score is inactive: -0.83.

Consider `O=C(O[C@@H]1C[C@@H]2C[C@H]3C[C@H](C1)N2CC3=O)c1c[nH]c2ccccc12` [Dolasetron], for which the Z-score is inactive: 0.151.

In the case of `CC(C)(C)NC(=O)[C@@H]1CN(Cc2cccnc2)CCN1C[C@@H](O)C[C@@H](Cc1ccccc1)C(=O)N[C@H]1c2ccccc2C[C@H]1O` [Indinavir sulfate salt hydrate], the Z-score was inactive: -0.0338.

`CC(C)(C)NC(=O)[C@@H]1CN(Cc2cccnc2)CCN1C[C@@H](O)C[C@@H](Cc1ccccc1)C(=O)N[C@H]1c2ccccc2C[C@H]1O` [Indinavir]: the Z-score was inactive: 0.00351.

With `COc1ccc2cc1Oc1ccc(cc1)C[C@H]1c3c(cc4c(c3Oc3cc5c(cc3OC)CCN(C)[C@@H]5C2)OCO4)CCN1C` [Cepharanthine], the Z-score was inactive: -0.798.

As to `CC(=O)O[C@H]1Cc2ccccc2N(C(N)=O)c2ccccc21`, the Z-score is inactive: -1.66.

As for `COc1ccc(-c2coc3cc(O)cc(O)c3c2=O)cc1` [Biochanin A], the Z-score is inactive: -0.27.

With `CC(C)(C)c1cc(/C=C(\C#N)C(N)=S)cc(C(C)(C)C)c1O` [Tyrphostin AG 879], the Z-score was inactive: -1.21.

Take `COC1=CC(=O)C[C@@H](C)[C@]12Oc1c(Cl)c(OC)cc(OC)c1C2=O` [Griseofulvin]: the Z-score is inactive: 1.32.

Turning to `COC1=CC(=O)C[C@@H](C)[C@]12Oc1c(Cl)c(OC)cc(OC)c1C2=O` [(+)-Griseofulvin], the Z-score was inactive: 0.0504.

As to `CCC(=O)NCC[C@@H]1CCc2ccc3c(c21)CCO3` [Ramelteon], the Z-score is inactive: -0.68.

Consider `C[C@H](O)C(=O)C1=Nc2c(nc(N)[nH]c2=O)NC1` [Sepiapterin], for which the Z-score was inactive: 0.295.

`CN(C)CCC(c1ccc(Cl)cc1)c1ccccn1` (stereo unspecified) [Chlorpheniramine Maleate]: the Z-score was inactive: 1.26.

As for `CN1Cc2sccc2C(c2ccc(O)c(O)c2)C1` (stereo unspecified), the Z-score was inactive: 1.01.

Take `Cc1onc(-c2ccccc2)c1C(=O)N[C@@H]1C(=O)N2[C@@H]1SC(C)(C)[C@@H]2C(=O)O` [Oxacillin sodium salt monohydrate]: the Z-score was inactive: 0.235.

For `CC(=O)C1=C(C)N(c2cccc(C(F)(F)F)c2)C(=O)N[C@@H]1c1ccc(C#N)nc1`, the Z-score is inactive: -0.246.

`CCCC(CCC)C(=O)O` [Valproic acid]: the Z-score was active: -2.38.

As to `CCCC(CCC)C(=O)O` [Valproic acid sodium], the Z-score was inactive: 1.53.

Take `CN(C)CCCC1(c2ccc(F)cc2)OCc2cc(C#N)ccc21` (stereo unspecified) [Citalopram hydrobromide]: the Z-score was inactive: -0.583.

Consider `Nn1nnc2ccccc21` [1-Aminobenzo triazole], for which the Z-score was inactive: -0.376.

In the case of `COc1cc2c[n+](C)c3c4cc5c(cc4ccc3c2cc1OC)OCO5` [Nitidine chloride], the Z-score was inactive: -1.

Regarding `COc1ccccc1CNCCCCCCNCCCCCCCCNCCCCCCNCc1ccccc1OC` [Methoctramine tetrahydrochloride], the Z-score was inactive: -0.335.

For `CCOC(=O)C1=CN(Cc2ccccc2)C=C(C(=O)OCC)C1c1ccccc1`, the Z-score is inactive: 0.795.

In the case of `Nc1nc(/C(=C/CC(=O)O)C(=O)N[C@@H]2C(=O)N3C(C(=O)O)=CCS[C@H]23)cs1` [Ceftibuten], the Z-score is inactive: 0.157.

Take `CCC(=O)O[C@]1(C(=O)SCF)[C@H](C)C[C@H]2[C@@H]3C[C@H](F)C4=CC(=O)C=C[C@]4(C)[C@@]3(F)[C@@H](O)C[C@@]21C` [Fluticasone Propionate]: the Z-score was inactive: 0.0945.

Consider `CN1CCC(=C2c3ccccc3CCn3c(C=O)cnc32)CC1` [Alcaftadine], for which the Z-score was inactive: 0.864.

In the case of `NS(=O)(=O)c1nn2cc(-c3ccccc3)nc2s1`, the Z-score was inactive: 2.48.

With `CN(C)CCOC(=O)C(c1ccccc1)C1(O)CCCC1` (stereo unspecified) [Cyclopentolate], the Z-score was inactive: -0.122.

`CC1=CC(=O)C2=C(C)CC[C@@H]3[C@H](OC(=O)[C@H]3C)[C@@H]12` [Leucomisine]: the Z-score was inactive: 0.431.

For the compound `O=C1O[C@H]([C@@H](O)CO)C(O)=C1O` [L-Ascorbic Acid], the Z-score was inactive: -0.618.

In the case of `Clc1ccc(C(c2ccccc2Cl)C(Cl)Cl)cc1` (stereo unspecified) [Mitotane], the Z-score was inactive: -0.341.

As to `Cc1cccc(C)c1OCC(=O)N[C@@H](Cc1ccccc1)[C@@H](O)C[C@H](Cc1ccccc1)NC(=O)[C@H](C(C)C)N1CCCNC1=O` [Lopinavir], the Z-score is inactive: -0.571.
